Hit rate of the full screen: of about 320,000 compounds, about 2,100 (0.66%) were called active. Inconclusive results, whose numbers are uncertain, are shown with a selection of clear calls. Calls come from the whole dose curve; as a rule, active = well fitted inhibition curve with a large enough effect in the signal ratio, with a control signal flat (not every such curve was filed as active); inconclusive = small, poorly fitted or top-dose-only effect, or effect the other way, or a change in a side signal; inactive = flat fitted curve, though single readings scatter; the % refers to the signal ratio. Where the call is inconclusive, the potency comes from a doubtful curve fit.
Assay: qHTS Assay for Lipid Storage Modulators in Drosophila S3 Cells
Conditions: BODIPY lipid droplet fluorescence, 18-24 h, cells fed with added oleic acid; lipid storage change, negative = inhibition: at 46.1 µM (top of the series) unless noted
Method in brief: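 Drosophila S3 cells loaded with oleic acid (400 uM, as added) and compounds at several concentrations; lipid droplets imaged by 488-nm laser-scanning cytometry, 500–530 nm intensity and object ratio to cell channel. Percent activity normalized to 20 uM Triacsin C.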
% is set by controls: 0 for no effect and ±100 for the full control effect; potency is the fitted concentration of half-maximal effect.

SMILES	lipid storage change, negative = inhibition	Potency
CC(=O)Nc1nc2c(s1)CCc1ccccc1-2	inconclusive: -7.28%	–
COC(=O)c1cc(NCc2c(F)cccc2Cl)ccc1N1CCOCC1	inconclusive: -8.2%	–
O=C(O)CN1C(=O)CC(Cc2ccccc2)C1=O (configuration not stated)	–	inconclusive: 20.6 µM [falling, single point]
O=C(CCn1nnnc1CN1CCOCC1)N1CCC(c2ccccc2Cl)C1 (configuration not stated)	inconclusive: -35.5%	–
COc1ccc(S(=O)(=O)NCc2ccccc2)cc1Br	inconclusive: 31.4%	–
O=C(O)c1cn(Cc2ccccn2)c(=O)c2ccccc12	inconclusive: 10.3%	–
O=C(O)CSc1ncccc1C(=O)O	–	inconclusive: 6.51 µM [activator, single point]
CCn1c(SCC(=O)NCc2ccc3c(c2)OCO3)nc2c(c1=O)SCC2	inconclusive: -23.9%	–
OCCC1CN(CCCn2cccn2)CCN1Cc1ccccc1 (configuration not stated)	inconclusive: 24.5%	–
COc1ccc(S(=O)(=O)c2c(C)c(NS(=O)(=O)c3ccccc3)cc(C)c2O)cc1	inconclusive: 0.128%	–
CCOC(=O)c1c(C)n(C)c2ccc(OC)c(NS(=O)(=O)c3ccc(Cl)s3)c12	inconclusive: 8.44%	–
O=C(CCC(=O)N1CCOc2ccc(Cl)cc21)NCc1ccccc1	inconclusive: -23.9%	–
CCC(=O)NCCc1nc2cc(NC(=O)c3ccco3)ccc2n1C	–	inconclusive: 4.11 µM [activator, partial curve]
Cc1onc(-c2ccccc2)c1C(=O)OCCOc1cccc(Cl)c1	inconclusive: -33.3%	–
O=[N+]([O-])c1ccc(/C=N/NC(=S)Nc2ccc(Cl)cc2Cl)s1	–	inconclusive: 29.1 µM [falling, single point]
Nc1ccc(N2CCCCC2)c2nonc12	inconclusive: -16.5%	–
COCCCNCCOCCOc1ccc(Cl)cc1C(C)(C)C	–	inconclusive: 4.11 µM [falling, full curve]
CCn1c(SCc2nc3sc(C(=O)O)c(C)c3c(=O)[nH]2)nnc1-c1ccc(Cl)cc1	inconclusive: -41.9% [cytotoxic] [at 0.00295 µM]	–
Cn1c(=O)c2c(nc(CN3CCN(Cc4ccccc4)CC3)n2Cc2ccc(Cl)cc2)n(C)c1=O	–	inconclusive: 0.0052 µM [activator, full curve, poor fit]
COc1ccc(C(=O)NCc2ccccc2CN2CCCC2)cc1S(=O)(=O)N1CCOCC1	inconclusive: 8.35%	–
CCOc1ccc(C(C)C)cc1S(=O)(=O)n1ccnc1C	inconclusive: 14%	–
CCCCOc1ccc(CN=C(N)N)cc1Cl	inconclusive: -13.1%	–
Cc1cc(-c2ccccc2)nc2cc(C(=O)NCc3ccco3)nn12	inconclusive: 17.3%	–
O=C(Cn1ncc2c3ccccc3n(Cc3ccccc3)c2c1=O)N1CCN(c2ccccn2)CC1	–	inconclusive: 0.411 µM [activator, full curve, poor fit]
O=C(c1ccc2c(c1)OCO2)N1CCN(c2cccc(C(F)(F)F)c2)CC1	–	inconclusive: 0.092 µM [activator, full curve, poor fit]
O=C(NCc1cccs1)C1CCCN(C(=O)Nc2ccc(F)cc2)C1 (configuration not stated)	inconclusive: 91%	–

SMILES	lipid storage change, negative = inhibition	Potency
O=C(O/N=C1\CCCc2ccccc21)C1CC1	inconclusive: 24.5%	–
Cn1nc(C(C)(C)C)cc1NC(=O)Nc1ccc(F)cc1F	inconclusive: 5.55%	–
FC(F)(F)c1cc(NCc2cccs2)n2ncnc2n1	inconclusive: 20.5%	–
CC1CN(Cc2csc(-c3ccc(Cl)cc3)n2)CC(C)O1 (configuration not stated)	inconclusive: 15%	–
CCOc1ccccc1NC(=O)CCCNC(=O)Cn1cnc2sc(C)c(C)c2c1=O	–	inconclusive: 29.1 µM [activator, single point]
C=CCn1c2ccccc2c2n[nH]c(=S)nc21	inconclusive: -65%	–
Cc1c(C(=O)O)cnc2c([N+](=O)[O-])cnn12	–	inconclusive: 0.184 µM [falling, full curve, poor fit]
Cn1nc(C(C)(C)C)c([N+](=O)[O-])c1C(N)=O	inconclusive: -36.9%	–
CC(NC(=O)c1ccccc1NC(=O)CN1CCc2ccccc2C1)c1ccccc1 (configuration not stated)	inconclusive: -4.15%	–
COc1cccc(C(=O)NCCS(=O)(=O)NCCc2ccc(OC)c(OC)c2)c1	inactive	–
CC1Cc2ccccc2N1c1ncnc2c1nnn2Cc1ccccc1 (configuration not stated)	inconclusive: 12.9%	–
CCOC(=O)c1cnn2c(C(F)(F)F)cc(-c3cn(C)nc3C)nc12	inconclusive: 23.2%	–
COCCSc1ccccc1C(=O)Nc1cc(C)ccn1	inconclusive: 34.7%	–
CCN(CC)CCNC(=O)c1cc(-c2cccnc2)nc2ccc(S(=O)(=O)N3CCC(C)CC3)cc12	–	inconclusive: 29.1 µM [activator, single point]
CC(C)(C)c1ccc(Cn2nnc3c(=O)[nH]c(C4CCCN(C(=O)c5cccs5)C4)nc32)cc1 (configuration not stated)	–	inconclusive: 29.1 µM [activator, single point]
COc1cc2c(cc1OC)C(=O)N1[C@H]3c4cc(Cl)ccc4OC[C@@H]3[C@H](c3ccccc3)[C@]1(C)C(=O)N2	–	active: 2.06 µM
COc1ccc(CNCCCC(=O)Nc2c(Cl)ccc(C)c2Cl)cc1OC	–	inconclusive: 3.66 µM [activator, full curve]
COC(=O)c1sccc1NC(=O)Nc1ccc(OC)c(OC)c1	–	inconclusive: 6.51 µM [activator, partial curve, poor fit]
CCOc1cc(/C=C2/N=C(c3ccc(C(C)(C)C)cc3)OC2=O)cc(Cl)c1OS(C)(=O)=O	inconclusive: -44.6% [at 0.0737 µM]	–
CCOc1ccc(NC(=O)C2CCCN2C(=O)OCc2ccccc2)cc1 (configuration not stated)	inconclusive: 0.664%	–
CC(/C=C1\N=C(SCc2ccccc2)SC1=O)=C\c1ccccc1	inconclusive: 188%	–
O=c1cc(N2CCCCCC2)[nH]c(=O)n1-c1ccc(Cl)cc1	inactive	–
CN(C[C@H](Cc1ccccc1)N(C[C@H](Cc1cccc2ccccc12)N(CCc1ccccc1)N=O)N=O)N=O	inconclusive: 16.2%	–
Cc1cccc(NC(=O)NNC(=O)c2nn(C)cc2Br)c1	–	inconclusive: 32.6 µM [falling, single point]
CC(C)C(C(=O)N1CCN(C(=O)OC(C)(C)C)CC1)n1cc(-c2cn([C@@H](C)C(=O)N3CCN(C(=O)OC(C)(C)C)CC3)nn2)nn1 (some centres not stated)	inconclusive: 14.2%	–
CC(NC(=O)[C@H](C)NC(=O)C1CC(=O)N(c2ccc3c(c2)OCO3)C1)c1ccccc1 (some centres not stated)	inconclusive: -4.98%	–

SMILES	lipid storage change, negative = inhibition	Potency
CCCN(CC(=O)Nc1ccccc1C)C(=O)c1ccc(N2CCOCC2)c([N+](=O)[O-])c1	inconclusive: 8.05%	–
CCN1CCN(CC(O)COc2ccc3c(c2)CCC3)CC1 (configuration not stated)	–	inconclusive: 0.164 µM [falling, full curve, poor fit]
COC(=O)c1ccc(-c2ccc(/C=N/N3C(=O)C4C5C=CC(CC5)C4C3=O)o2)cc1 (configuration not stated)	inactive	–
O=C(NCC(=O)N1CCCCCCC1)c1ccco1	inconclusive: -3.09%	–
COc1cc(O)c(C(CC(=O)N2CCCCC2)c2ccc(N(C)C)cc2)c(OC)c1 (configuration not stated)	inconclusive: 15.6%	–
COc1ccc(S(=O)(=O)N(C)C)cc1NC(=O)CSC(C)C(=O)Nc1cc(C)on1 (configuration not stated)	inconclusive: 7.31% [cytotoxic]	–
Cc1c(-c2ccc(F)cc2)nc(N)c(C#N)c1-c1ccco1	inconclusive: 32.4%	–
COc1cccc(NC(=S)Nc2ccc(F)cc2)c1	–	inconclusive: 29.1 µM [activator, single point]
Cc1cc(Cl)ccc1OCCCC(=O)NCCCn1ccnc1	inconclusive: 30.5%	–
O=C(CCSc1ccccc1)N1CCN(c2ccccc2)CC1	–	inconclusive: 0.366 µM [activator, full curve]
Cc1ccc(Cl)cc1N(CC(=O)NC1CCCCC1)S(C)(=O)=O	–	inconclusive: 0.651 µM [falling, single point]
O=C(NCc1ccccc1)c1onc(CSc2ccc(Cl)cc2)c1C(=O)NCc1ccccc1	inconclusive: 5.66%	–
C=CCn1c(=S)[nH]c2cc(C(=O)NCCc3ccc(S(N)(=O)=O)cc3)ccc2c1=O	inactive	–
C[C@@]12C(=O)OC(=O)[C@]1(C)C1CCC2O1	inconclusive: -21.4%	–
CN1CCN(CC(=O)Nc2cccc(S(=O)(=O)N(C)c3ccccc3)c2)CC1	inconclusive: -28.9%	–
CC(C)NC(=O)c1cc(-c2cccs2)nc2ccccc12	inconclusive: 14.2%	–
N#Cc1cc(-c2ccccc2)cnc1Sc1ccc(Cl)cc1	inconclusive: -148%	–
COC(=O)CN(c1cccc(OC)c1)S(C)(=O)=O	–	active: 16.4 µM
Cc1ccc(OCC(=O)Nc2nnc(S(=O)(=O)N3CCCCC3)s2)cc1	inconclusive: 34.4%	–
CCc1cc2c(COC(=O)c3cccc(NS(C)(=O)=O)c3)cc(=O)oc2cc1O	–	inconclusive: 23.1 µM [falling, single point]
CN(CC(=O)Nc1cccc(F)c1)C(=O)CN1c2cccc3cccc(c23)S1(=O)=O	inconclusive: 19.1%	–
C/C=C/c1ccc(OCC(=O)N(CCOC)c2c(N)n(CCCC)c(=O)[nH]c2=O)c(OC)c1	inconclusive	–
Cc1ccc2nc3c(cc(C(=O)NCCc4ccccc4)c(=N)n3CCCN3CCOCC3)c(=O)n2c1	–	inconclusive: 29.1 µM [falling, single point]
c1ccc(CCNc2nc(-c3cccnc3)cs2)cc1	inconclusive: 51.8%	–
COC(=O)Nc1nc2c(C)cccc2s1	–	inconclusive: 25.9 µM [falling, single point]

Reformatted: results already given.

| SMILES | lipid storage change, negative = inhibition | Potency |
| --- | --- | --- |
| CCn1c(SCc2nc3sc(C(=O)O)c(C)c3c(=O)[nH]2)nnc1-c1ccc(Cl)cc1 | inconclusive: -41.9% [cytotoxic] [at 0.00295 µM] | – |
| Cn1c(=O)c2c(nc(CN3CCN(Cc4ccccc4)CC3)n2Cc2ccc(Cl)cc2)n(C)c1=O | – | inconclusive: 0.0052 µM [activator, full curve, poor fit] |
| COc1ccc(C(=O)NCc2ccccc2CN2CCCC2)cc1S(=O)(=O)N1CCOCC1 | inconclusive: 8.35% | – |
| CCOc1ccc(C(C)C)cc1S(=O)(=O)n1ccnc1C | inconclusive: 14% | – |
| CCCCOc1ccc(CN=C(N)N)cc1Cl | inconclusive: -13.1% | – |
| Cc1cc(-c2ccccc2)nc2cc(C(=O)NCc3ccco3)nn12 | inconclusive: 17.3% | – |
| O=C(Cn1ncc2c3ccccc3n(Cc3ccccc3)c2c1=O)N1CCN(c2ccccn2)CC1 | – | inconclusive: 0.411 µM [activator, full curve, poor fit] |
| O=C(c1ccc2c(c1)OCO2)N1CCN(c2cccc(C(F)(F)F)c2)CC1 | – | inconclusive: 0.092 µM [activator, full curve, poor fit] |
| O=C(NCc1cccs1)C1CCCN(C(=O)Nc2ccc(F)cc2)C1 (configuration not stated) | inconclusive: 91% | – |
| O=C(O/N=C1\CCCc2ccccc21)C1CC1 | inconclusive: 24.5% | – |
| Cn1nc(C(C)(C)C)cc1NC(=O)Nc1ccc(F)cc1F | inconclusive: 5.55% | – |
| FC(F)(F)c1cc(NCc2cccs2)n2ncnc2n1 | inconclusive: 20.5% | – |
| CC1CN(Cc2csc(-c3ccc(Cl)cc3)n2)CC(C)O1 (configuration not stated) | inconclusive: 15% | – |
| CCOc1ccccc1NC(=O)CCCNC(=O)Cn1cnc2sc(C)c(C)c2c1=O | – | inconclusive: 29.1 µM [activator, single point] |
| C=CCn1c2ccccc2c2n[nH]c(=S)nc21 | inconclusive: -65% | – |
| Cc1c(C(=O)O)cnc2c([N+](=O)[O-])cnn12 | – | inconclusive: 0.184 µM [falling, full curve, poor fit] |
| Cn1nc(C(C)(C)C)c([N+](=O)[O-])c1C(N)=O | inconclusive: -36.9% | – |
| CC(NC(=O)c1ccccc1NC(=O)CN1CCc2ccccc2C1)c1ccccc1 (configuration not stated) | inconclusive: -4.15% | – |
| COc1cccc(C(=O)NCCS(=O)(=O)NCCc2ccc(OC)c(OC)c2)c1 | inactive | – |
| CC1Cc2ccccc2N1c1ncnc2c1nnn2Cc1ccccc1 (configuration not stated) | inconclusive: 12.9% | – |
| CCOC(=O)c1cnn2c(C(F)(F)F)cc(-c3cn(C)nc3C)nc12 | inconclusive: 23.2% | – |

From PubChem BioAssay AID2685 (National Center for Advancing Translational Sciences (NCATS), 2010)
